{
  "sequences": {"note": "Sequences of proteins named here, by UniProt entry; tags and fusion partners are left off. A change or cut given only in a name is not applied to a line headed by its entry.", "UniProt P26640": "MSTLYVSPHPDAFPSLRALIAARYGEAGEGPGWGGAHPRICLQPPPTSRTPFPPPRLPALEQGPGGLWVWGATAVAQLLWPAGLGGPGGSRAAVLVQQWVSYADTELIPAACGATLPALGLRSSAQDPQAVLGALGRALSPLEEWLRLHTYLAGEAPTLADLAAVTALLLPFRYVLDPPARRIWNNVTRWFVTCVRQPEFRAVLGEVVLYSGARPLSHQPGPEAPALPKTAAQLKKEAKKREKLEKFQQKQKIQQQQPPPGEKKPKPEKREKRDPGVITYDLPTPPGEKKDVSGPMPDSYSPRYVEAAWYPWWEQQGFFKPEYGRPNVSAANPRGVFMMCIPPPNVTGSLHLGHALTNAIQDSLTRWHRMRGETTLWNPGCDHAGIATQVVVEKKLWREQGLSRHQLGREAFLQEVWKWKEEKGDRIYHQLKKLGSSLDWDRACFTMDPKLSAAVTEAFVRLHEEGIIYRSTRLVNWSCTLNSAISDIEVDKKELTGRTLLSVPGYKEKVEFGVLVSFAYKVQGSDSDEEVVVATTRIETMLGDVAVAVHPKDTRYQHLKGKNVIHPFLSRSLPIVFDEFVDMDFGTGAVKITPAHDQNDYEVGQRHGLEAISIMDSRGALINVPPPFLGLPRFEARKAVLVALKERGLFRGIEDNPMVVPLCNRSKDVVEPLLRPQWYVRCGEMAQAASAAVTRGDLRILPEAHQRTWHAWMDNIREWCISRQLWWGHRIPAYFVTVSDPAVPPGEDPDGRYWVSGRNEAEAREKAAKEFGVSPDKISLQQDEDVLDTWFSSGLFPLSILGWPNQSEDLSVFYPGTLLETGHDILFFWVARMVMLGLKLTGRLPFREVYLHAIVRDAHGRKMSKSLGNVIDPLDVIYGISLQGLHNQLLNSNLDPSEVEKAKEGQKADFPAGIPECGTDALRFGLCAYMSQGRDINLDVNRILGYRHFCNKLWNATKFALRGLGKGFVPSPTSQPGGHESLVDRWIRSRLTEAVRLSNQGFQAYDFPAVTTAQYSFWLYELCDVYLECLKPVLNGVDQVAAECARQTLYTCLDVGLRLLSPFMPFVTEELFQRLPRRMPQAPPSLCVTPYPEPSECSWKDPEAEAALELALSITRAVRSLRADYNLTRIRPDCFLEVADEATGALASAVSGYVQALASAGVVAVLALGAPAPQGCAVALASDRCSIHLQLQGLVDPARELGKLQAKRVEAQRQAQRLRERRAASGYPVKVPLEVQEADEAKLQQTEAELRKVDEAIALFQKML", "UniProt Q8IX04": "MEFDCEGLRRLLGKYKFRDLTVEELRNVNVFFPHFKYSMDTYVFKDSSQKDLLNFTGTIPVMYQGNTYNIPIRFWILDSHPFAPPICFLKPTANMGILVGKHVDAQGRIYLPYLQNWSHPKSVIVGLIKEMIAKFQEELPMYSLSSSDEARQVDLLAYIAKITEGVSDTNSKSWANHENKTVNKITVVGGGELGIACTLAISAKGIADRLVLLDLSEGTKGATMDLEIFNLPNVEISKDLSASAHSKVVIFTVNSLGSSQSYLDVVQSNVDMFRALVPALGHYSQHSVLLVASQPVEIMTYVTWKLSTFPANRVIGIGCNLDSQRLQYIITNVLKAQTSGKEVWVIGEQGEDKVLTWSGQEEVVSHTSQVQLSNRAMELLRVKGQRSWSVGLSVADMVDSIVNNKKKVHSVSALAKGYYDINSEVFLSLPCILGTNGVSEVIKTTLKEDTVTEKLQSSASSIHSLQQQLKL", "UniProt Q8NBM4": "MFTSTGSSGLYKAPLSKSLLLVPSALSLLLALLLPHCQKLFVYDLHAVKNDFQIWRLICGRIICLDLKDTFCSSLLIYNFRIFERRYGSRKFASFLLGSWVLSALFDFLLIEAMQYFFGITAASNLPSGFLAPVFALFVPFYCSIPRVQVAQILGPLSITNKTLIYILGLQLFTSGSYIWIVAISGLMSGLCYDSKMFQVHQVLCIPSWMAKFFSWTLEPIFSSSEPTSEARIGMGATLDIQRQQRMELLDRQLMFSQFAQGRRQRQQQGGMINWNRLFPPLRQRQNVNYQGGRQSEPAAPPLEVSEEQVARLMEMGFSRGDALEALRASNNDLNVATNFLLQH", "UniProt P40222": "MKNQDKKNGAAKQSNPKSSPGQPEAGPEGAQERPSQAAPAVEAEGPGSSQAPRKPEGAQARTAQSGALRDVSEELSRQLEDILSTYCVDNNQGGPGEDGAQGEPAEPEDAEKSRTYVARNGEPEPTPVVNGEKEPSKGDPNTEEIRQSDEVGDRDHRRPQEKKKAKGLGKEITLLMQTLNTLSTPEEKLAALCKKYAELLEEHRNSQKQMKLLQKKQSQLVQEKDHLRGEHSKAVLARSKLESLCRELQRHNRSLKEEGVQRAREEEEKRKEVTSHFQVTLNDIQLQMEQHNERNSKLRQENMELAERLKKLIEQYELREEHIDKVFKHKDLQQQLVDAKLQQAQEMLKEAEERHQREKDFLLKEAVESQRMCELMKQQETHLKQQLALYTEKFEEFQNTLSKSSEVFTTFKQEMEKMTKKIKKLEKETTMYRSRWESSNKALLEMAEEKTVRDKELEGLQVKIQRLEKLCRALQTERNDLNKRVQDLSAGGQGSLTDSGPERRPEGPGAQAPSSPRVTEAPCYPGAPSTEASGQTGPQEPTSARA", "UniProt O60701": "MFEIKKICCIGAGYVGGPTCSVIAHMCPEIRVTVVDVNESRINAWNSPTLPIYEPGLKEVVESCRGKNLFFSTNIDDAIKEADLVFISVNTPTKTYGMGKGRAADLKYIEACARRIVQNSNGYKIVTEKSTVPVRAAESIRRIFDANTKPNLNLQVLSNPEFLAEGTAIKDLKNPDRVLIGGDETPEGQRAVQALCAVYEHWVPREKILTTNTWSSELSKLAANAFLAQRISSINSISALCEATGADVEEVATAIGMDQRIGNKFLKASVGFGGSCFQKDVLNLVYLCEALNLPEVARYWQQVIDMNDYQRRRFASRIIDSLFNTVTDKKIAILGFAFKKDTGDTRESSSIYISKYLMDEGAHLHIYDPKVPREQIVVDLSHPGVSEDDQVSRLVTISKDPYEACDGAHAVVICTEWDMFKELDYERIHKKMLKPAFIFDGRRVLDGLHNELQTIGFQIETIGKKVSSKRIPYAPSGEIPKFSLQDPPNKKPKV", "UniProt O95551": "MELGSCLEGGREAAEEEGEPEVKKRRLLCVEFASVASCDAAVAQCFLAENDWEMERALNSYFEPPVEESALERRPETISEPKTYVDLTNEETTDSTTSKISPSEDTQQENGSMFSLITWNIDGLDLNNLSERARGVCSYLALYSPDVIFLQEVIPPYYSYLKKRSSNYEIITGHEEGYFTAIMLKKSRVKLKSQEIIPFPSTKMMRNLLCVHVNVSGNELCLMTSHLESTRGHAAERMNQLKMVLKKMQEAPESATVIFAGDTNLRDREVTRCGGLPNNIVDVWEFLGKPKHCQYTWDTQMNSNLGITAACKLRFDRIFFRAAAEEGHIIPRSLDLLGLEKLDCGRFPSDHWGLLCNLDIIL", "UniProt P51809, whole entry": "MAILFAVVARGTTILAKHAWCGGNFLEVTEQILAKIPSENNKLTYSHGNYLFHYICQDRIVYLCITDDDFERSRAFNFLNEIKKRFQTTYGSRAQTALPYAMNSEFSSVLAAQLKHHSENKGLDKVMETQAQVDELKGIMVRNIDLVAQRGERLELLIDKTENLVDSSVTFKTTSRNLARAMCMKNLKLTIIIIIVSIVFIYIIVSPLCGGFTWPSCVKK", "UniProt Q9H3N1": "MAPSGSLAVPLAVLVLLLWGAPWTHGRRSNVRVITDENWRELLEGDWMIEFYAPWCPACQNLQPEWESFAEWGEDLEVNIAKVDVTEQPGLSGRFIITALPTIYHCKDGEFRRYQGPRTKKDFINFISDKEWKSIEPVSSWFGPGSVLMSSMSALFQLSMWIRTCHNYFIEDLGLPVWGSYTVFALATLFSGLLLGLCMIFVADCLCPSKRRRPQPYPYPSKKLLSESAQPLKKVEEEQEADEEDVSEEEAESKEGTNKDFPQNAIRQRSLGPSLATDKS", "UniProt Q9UH99": "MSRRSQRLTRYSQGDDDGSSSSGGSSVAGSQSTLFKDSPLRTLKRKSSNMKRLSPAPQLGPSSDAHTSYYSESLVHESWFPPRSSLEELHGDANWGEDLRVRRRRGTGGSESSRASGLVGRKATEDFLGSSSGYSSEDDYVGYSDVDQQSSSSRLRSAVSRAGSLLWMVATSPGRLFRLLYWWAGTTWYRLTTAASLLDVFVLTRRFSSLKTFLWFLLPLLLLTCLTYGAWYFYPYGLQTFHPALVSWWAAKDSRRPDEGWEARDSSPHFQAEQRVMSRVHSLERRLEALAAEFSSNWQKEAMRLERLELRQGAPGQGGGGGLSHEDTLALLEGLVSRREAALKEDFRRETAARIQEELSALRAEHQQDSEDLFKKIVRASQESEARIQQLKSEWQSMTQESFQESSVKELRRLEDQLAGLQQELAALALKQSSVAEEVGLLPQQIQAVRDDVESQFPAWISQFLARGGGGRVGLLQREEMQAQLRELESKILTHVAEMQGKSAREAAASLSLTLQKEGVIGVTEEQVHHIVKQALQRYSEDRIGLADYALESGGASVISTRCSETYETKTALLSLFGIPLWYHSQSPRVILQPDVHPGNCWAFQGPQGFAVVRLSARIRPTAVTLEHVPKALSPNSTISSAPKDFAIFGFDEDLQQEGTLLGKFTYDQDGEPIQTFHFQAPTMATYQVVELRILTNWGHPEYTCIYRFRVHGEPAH", "UniProt O14949": "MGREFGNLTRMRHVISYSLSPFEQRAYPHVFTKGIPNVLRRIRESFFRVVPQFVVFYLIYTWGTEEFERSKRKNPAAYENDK", "UniProt O94888": "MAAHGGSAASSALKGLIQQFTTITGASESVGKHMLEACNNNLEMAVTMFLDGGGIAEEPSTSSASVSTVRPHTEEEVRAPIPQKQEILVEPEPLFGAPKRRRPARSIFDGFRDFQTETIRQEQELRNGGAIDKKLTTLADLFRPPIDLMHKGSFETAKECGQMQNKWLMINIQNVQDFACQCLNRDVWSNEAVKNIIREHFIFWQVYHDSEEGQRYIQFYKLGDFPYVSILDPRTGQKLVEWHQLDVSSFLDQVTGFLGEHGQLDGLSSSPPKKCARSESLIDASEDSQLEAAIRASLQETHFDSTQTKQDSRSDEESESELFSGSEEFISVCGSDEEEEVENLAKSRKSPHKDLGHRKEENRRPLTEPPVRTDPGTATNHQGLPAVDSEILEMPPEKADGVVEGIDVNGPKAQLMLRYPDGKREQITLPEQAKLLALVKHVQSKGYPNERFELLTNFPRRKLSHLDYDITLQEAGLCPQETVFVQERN", "UniProt Q9UNY4": "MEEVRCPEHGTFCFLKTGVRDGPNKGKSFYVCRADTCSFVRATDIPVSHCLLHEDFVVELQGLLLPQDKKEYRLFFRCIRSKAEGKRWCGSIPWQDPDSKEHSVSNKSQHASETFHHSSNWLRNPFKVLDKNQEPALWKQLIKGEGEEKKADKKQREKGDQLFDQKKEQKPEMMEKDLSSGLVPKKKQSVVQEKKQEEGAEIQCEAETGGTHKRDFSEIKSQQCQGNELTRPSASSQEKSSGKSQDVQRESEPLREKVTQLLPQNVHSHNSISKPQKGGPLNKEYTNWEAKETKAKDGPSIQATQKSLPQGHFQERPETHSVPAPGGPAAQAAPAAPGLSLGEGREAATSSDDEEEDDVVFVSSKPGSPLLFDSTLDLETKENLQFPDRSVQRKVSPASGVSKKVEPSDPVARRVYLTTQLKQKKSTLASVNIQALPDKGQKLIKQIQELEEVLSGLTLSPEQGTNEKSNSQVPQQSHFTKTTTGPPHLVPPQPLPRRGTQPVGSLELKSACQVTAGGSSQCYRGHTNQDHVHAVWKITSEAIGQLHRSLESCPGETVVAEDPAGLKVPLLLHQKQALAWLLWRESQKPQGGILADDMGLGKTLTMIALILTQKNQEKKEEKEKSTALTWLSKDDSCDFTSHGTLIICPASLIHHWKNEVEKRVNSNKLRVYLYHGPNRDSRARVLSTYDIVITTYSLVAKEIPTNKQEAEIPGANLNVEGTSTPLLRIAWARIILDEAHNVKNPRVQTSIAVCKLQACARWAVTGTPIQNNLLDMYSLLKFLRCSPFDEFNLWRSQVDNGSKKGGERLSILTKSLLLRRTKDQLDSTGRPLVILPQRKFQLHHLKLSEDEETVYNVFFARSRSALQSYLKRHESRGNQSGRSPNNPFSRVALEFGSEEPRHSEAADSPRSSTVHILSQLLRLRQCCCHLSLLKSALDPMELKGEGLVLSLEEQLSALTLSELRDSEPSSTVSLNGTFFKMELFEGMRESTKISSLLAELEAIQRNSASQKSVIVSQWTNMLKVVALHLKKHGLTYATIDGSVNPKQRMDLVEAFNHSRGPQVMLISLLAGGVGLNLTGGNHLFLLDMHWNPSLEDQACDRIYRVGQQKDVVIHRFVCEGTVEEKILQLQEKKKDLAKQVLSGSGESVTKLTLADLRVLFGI"},
  "source": "the supplement of paper PMC7666118",
  "note": "The list shows a part of the results.",
  "data": [
    {"compound": "COc1ccc(Cn2ccc3cc(C)c(C(=O)NO)cc32)cc1", "assay": "dose-dependent thermal stabilisation call (2D-TPP, DLPTP, 10% FDR) (binary (1 = stabilised)); higher = stabilised by the compound", "conditions": "system: HL-60 intact cells; concentration range 0.04-10 µM", "experimental": "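2D thermal proteome profiling in intact HL-60 cells treated with BRD-3811 (0, 0.04, 0.29, 2, 10 uM) for 90 min at 37 C, then heated 3 min at one of 12 temperatures (42-63.9 C). Soluble protein was quantified by TMT10 MS. The value is the DLPTP call of the paper: dose-dependent thermal stabilisation over all temperatures at 10% FDR (F-test of a dose-response against a flat model); one experiment, one call per tested protein.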", "values": [
      {"target": "UBAP1 (UniProt Q9NZ09)", "dose-dependent thermal stabilisation call": "inactive: 0"},
      {"target": "VARS (UniProt P26640)", "dose-dependent thermal stabilisation call": "inactive: 0"},
      {"target": "URG4 (UniProt Q8TCY9)", "dose-dependent thermal stabilisation call": "inactive: 0"},
      {"target": "UEVLD (UniProt Q8IX04)", "dose-dependent thermal stabilisation call": "inactive: 0"},
      {"target": "UBR3 (UniProt Q6ZT12)", "dose-dependent thermal stabilisation call": "inactive: 0"},
      {"target": "UCKL1 (UniProt Q9NWZ5)", "dose-dependent thermal stabilisation call": "inactive: 0"},
      {"target": "UBAC2 (UniProt Q8NBM4)", "dose-dependent thermal stabilisation call": "inactive: 0"},
      {"target": "USP34 (UniProt Q70CQ2)", "dose-dependent thermal stabilisation call": "inactive: 0"},
      {"target": "UBE2K (UniProt P61086)", "dose-dependent thermal stabilisation call": "inactive: 0"},
      {"target": "USP10 (UniProt Q14694)", "dose-dependent thermal stabilisation call": "inactive: 0"},
      {"target": "TXLNA (UniProt P40222)", "dose-dependent thermal stabilisation call": "inactive: 0"},
      {"target": "VPS18 (UniProt Q9P253)", "dose-dependent thermal stabilisation call": "inactive: 0"},
      {"target": "TTC35 (UniProt Q15006)", "dose-dependent thermal stabilisation call": "inactive: 0"},
      {"target": "UMPS (UniProt P11172)", "dose-dependent thermal stabilisation call": "inactive: 0"},
      {"target": "VPS53 (UniProt Q5VIR6)", "dose-dependent thermal stabilisation call": "inactive: 0"},
      {"target": "UGDH (UniProt O60701)", "dose-dependent thermal stabilisation call": "inactive: 0"},
      {"target": "TTRAP (UniProt O95551)", "dose-dependent thermal stabilisation call": "inactive: 0"},
      {"target": "TXNDC15 (UniProt Q96J42)", "dose-dependent thermal stabilisation call": "inactive: 0"},
      {"target": "UAP1 (UniProt Q16222)", "dose-dependent thermal stabilisation call": "inactive: 0"},
      {"target": "VAMP7 (UniProt P51809)", "dose-dependent thermal stabilisation call": "inactive: 0"},
      {"target": "TXNDC1 (UniProt Q9H3N1)", "dose-dependent thermal stabilisation call": "inactive: 0"},
      {"target": "UNC13D (UniProt Q70J99)", "dose-dependent thermal stabilisation call": "inactive: 0"},
      {"target": "UNG (UniProt P13051)", "dose-dependent thermal stabilisation call": "inactive: 0"},
      {"target": "USF2 (UniProt Q15853)", "dose-dependent thermal stabilisation call": "inactive: 0"},
      {"target": "UVRAG (UniProt Q9P2Y5)", "dose-dependent thermal stabilisation call": "inactive: 0"},
      {"target": "UBE2J1 (UniProt Q9Y385)", "dose-dependent thermal stabilisation call": "inactive: 0"},
      {"target": "TWF1 (UniProt Q12792)", "dose-dependent thermal stabilisation call": "inactive: 0"},
      {"target": "UBFD1 (UniProt O14562)", "dose-dependent thermal stabilisation call": "inactive: 0"},
      {"target": "UNC84B (UniProt Q9UH99)", "dose-dependent thermal stabilisation call": "inactive: 0"},
      {"target": "UCHL3 (UniProt P15374)", "dose-dependent thermal stabilisation call": "inactive: 0"},
      {"target": "TXNDC10 (UniProt Q96JJ7)", "dose-dependent thermal stabilisation call": "inactive: 0"},
      {"target": "UQCRQ (UniProt O14949)", "dose-dependent thermal stabilisation call": "inactive: 0"},
      {"target": "UBE2E3 (UniProt Q969T4)", "dose-dependent thermal stabilisation call": "inactive: 0"},
      {"target": "UBXN7 (UniProt O94888)", "dose-dependent thermal stabilisation call": "inactive: 0"},
      {"target": "WDR11 (UniProt Q9BZH6)", "dose-dependent thermal stabilisation call": "inactive: 0"},
      {"target": "TTF2 (UniProt Q9UNY4)", "dose-dependent thermal stabilisation call": "inactive: 0"}
    ]}
  ]
}
